# Experimental data as given in paper PMC7819943, “Rice protein-binding microarrays: a tool to detect cis-acting elements near promoter regions in rice”.
# The chains behind the UniProt entries cited, without tags or fusion partners.
# UniProt Q0JBA9, entry or part of it: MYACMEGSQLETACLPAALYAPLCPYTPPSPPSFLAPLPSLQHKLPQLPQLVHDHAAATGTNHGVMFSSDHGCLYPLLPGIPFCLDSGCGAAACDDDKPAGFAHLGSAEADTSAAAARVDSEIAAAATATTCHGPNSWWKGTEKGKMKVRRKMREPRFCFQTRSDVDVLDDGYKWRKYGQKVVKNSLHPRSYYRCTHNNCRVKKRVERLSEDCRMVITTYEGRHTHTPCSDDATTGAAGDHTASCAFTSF
# Some of the results follow.
# Biological target: OsWRKY34 (Oryza sativa, UniProt Q0JBA9 1-250)
# Assay: protein-binding microarray (RPBM); PBS, 2% BSA, 51.3 ng/ul salmon testes DNA, 50 uM zinc acetate, 200 nM TF, 25 C, 1 h; high values mean tight binding
# Settings: protein: recombinant; tags: N-terminal polyhistidine and DsRed monomer fusion (pET32a); label: CyDye5-dUTP incorporated in the synthesized complementary strand; 3' TTTTT single-stranded linker to array surface; dsDNA, one strand shown
# Summary of the method: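 A custom Agilent array was converted to double-stranded form by primer extension with Cy5-dUTP and blocked with 2% BSA. Protein at 200 nM in PBS with 2% BSA, salmon testes DNA and 50 µM zinc acetate was applied for 1 h at 25 °C, followed by washing. The proteins were polyhistidine–DsRed N-terminal fusions of transcription factors, expressed in E. coli BL21-CodonPlus and Ni–NTA-purified. The binding signal is per-feature fluorescence intensity (arbitrary units) from an Axon 4000B scanner.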
row,Sequence,binding signal
1,ATAACCTACTCTCTCCGGTTTCATAATTCTTAACATATTGCGGAGTCACCTAGTGCAG,9650 fluorescence intensity (a.u.)
2,TTTTCACGCTCAACTGCAATTTGTTATACACTTATACTAACGGAGTCACCTAGTGCAG,9280 fluorescence intensity (a.u.)
3,AGTACTGCACTGCTCCTACCTTCTGCAAATCCAATCAATCCGGAGTCACCTAGTGCAG,8950 fluorescence intensity (a.u.)
4,CATTCGTTGTCAATCTTTCTTGTAAGTATCTCAATACATCCGGAGTCACCTAGTGCAG,10200 fluorescence intensity (a.u.)
5,CTTGTCGTCGCCTTCGCCATCCCCGCCGCCGTTCCCGCCACGGAGTCACCTAGTGCAG,10800 fluorescence intensity (a.u.)
6,ATGACGCCGTTGACTTTTTAACAAACGTTTGACCATTCGTCGGAGTCACCTAGTGCAG,21700 fluorescence intensity (a.u.)
7,CTTGCTTAGTGCAATAGCCATTCTACATTCTGTATCTTGACGGAGTCACCTAGTGCAG,8740 fluorescence intensity (a.u.)
8,AGTTCGGTACTACTCCTACTACTACTACTACTACTACTACCGGAGTCACCTAGTGCAG,10200 fluorescence intensity (a.u.)
9,GATTCCATTCTCTTATCGTTTTCCTCCCGAGCCGCTTCGTCGGAGTCACCTAGTGCAG,8280 fluorescence intensity (a.u.)
10,GCACAGAGCATGCAAATTCCTTTCCGGCCCATTAGAAATTCGGAGTCACCTAGTGCAG,8650 fluorescence intensity (a.u.)
11,GCTATCTTTGACCACGCCGCACTGTTGCCGCGCATGCACACGGAGTCACCTAGTGCAG,9920 fluorescence intensity (a.u.)
12,TTATTTTACCTCTTTGTCCATGTTTAATTACAAGGAATTTCGGAGTCACCTAGTGCAG,8480 fluorescence intensity (a.u.)
13,CTCTGGCCCTCTGCTATTGATGTGTGTGCTACTTGCAGCTCGGAGTCACCTAGTGCAG,12800 fluorescence intensity (a.u.)
14,TTTCTTCCTTAATTTGTATCGATTCACCTAGATATGTTTCCGGAGTCACCTAGTGCAG,8240 fluorescence intensity (a.u.)
15,TCTGTTATATTTTTAGCACTAGTCTAGATTTCTAGTACTACGGAGTCACCTAGTGCAG,8060 fluorescence intensity (a.u.)
16,AATATAGTTGCTGATGCGCTGTCCAGGATGCCTGTTATACCGGAGTCACCTAGTGCAG,9400 fluorescence intensity (a.u.)
17,GCTTCTCCGCCTTGGGCTTCTTCCCCGCCGGCGCCTTCTCCGGAGTCACCTAGTGCAG,11600 fluorescence intensity (a.u.)
18,AGCTCACAGCTTGCATTGTACTAGTACACTGTACTACTCTCGGAGTCACCTAGTGCAG,8030 fluorescence intensity (a.u.)
19,CCATTCGGCGTTCTTTTTCTTCTTGTCATTAATTAATTATCGGAGTCACCTAGTGCAG,10600 fluorescence intensity (a.u.)
20,GCTTTCTAGAACACGTCCAAGTTGAGCATTGTTTCAGTGACGGAGTCACCTAGTGCAG,8060 fluorescence intensity (a.u.)
21,CGGTCAGCCTTTTTTTTTACCCAAAATTTTTTGCTATTTTCGGAGTCACCTAGTGCAG,13300 fluorescence intensity (a.u.)
22,TTGTAATTCTTTACCATTCTGCATCTTGGCTACAGAGTTTCGGAGTCACCTAGTGCAG,8470 fluorescence intensity (a.u.)
23,ATTTTCTTATCTTTTCATAGACTACGACGTCACCACTATCCGGAGTCACCTAGTGCAG,8320 fluorescence intensity (a.u.)
24,TGTGCCGTGACTCGATGTGCTCCTCCATCTCTTGCTGCAACGGAGTCACCTAGTGCAG,8170 fluorescence intensity (a.u.)
25,GAACGTATCCTACGCACAAAGTCTTCTCGTGTACACGCCGCGGAGTCACCTAGTGCAG,8120 fluorescence intensity (a.u.)
26,TATCCGTGCGCCTCAACTTTCCCACCACCACCGCGGTCTCCGGAGTCACCTAGTGCAG,9540 fluorescence intensity (a.u.)
27,GATTTCTTTCTGCCGTCATCTTCGAATATCCATGACTCGCCGGAGTCACCTAGTGCAG,9800 fluorescence intensity (a.u.)

row,Sequence,binding signal
1,CAGCTTGTCAATCGGGTCAACACGCCACGTCGGATGAAATCGGAGTCACCTAGTGCAG,8210 fluorescence intensity (a.u.)
2,GGTGGCTTGGCGCTTTGATCTGATGCTGGTTGTAGTTGCTCGGAGTCACCTAGTGCAG,8560 fluorescence intensity (a.u.)
3,TTATTCCTAGGTGAACTATTATTTTTTCTTTTTCTATTTTCGGAGTCACCTAGTGCAG,11700 fluorescence intensity (a.u.)
4,TCCATATATTCACATGTACGCAATCATATAATTCATCCAACGGAGTCACCTAGTGCAG,8240 fluorescence intensity (a.u.)
5,TACGAATAATCAGCCGTTTCACCACGCTTACTCTCTGAGACGGAGTCACCTAGTGCAG,8150 fluorescence intensity (a.u.)
6,TTCGGCAATCTAGCCGGCGTCCCAACTCCTCGCTGCCGCACGGAGTCACCTAGTGCAG,8060 fluorescence intensity (a.u.)
7,ACGCAGGCCGTCCCGTTCCGTTTCGTTTCCCCTGCCCGAGCGGAGTCACCTAGTGCAG,8300 fluorescence intensity (a.u.)
8,ATTGAAACATGATCCGAGTCATAGCCTGACTGGAATTCTTCGGAGTCACCTAGTGCAG,9120 fluorescence intensity (a.u.)
9,ACCTCGCCGCCTCCTCCGTTGCCGGCGATCCCGGCACATGCGGAGTCACCTAGTGCAG,9070 fluorescence intensity (a.u.)
10,CATAGTAGGCCATAAATTTGCTACCTTTTGTTCTTGCTTTCGGAGTCACCTAGTGCAG,8500 fluorescence intensity (a.u.)
11,AAAAAATTGGCATTTCTTCGCTCTAGACACAATTCCTGTGCGGAGTCACCTAGTGCAG,10600 fluorescence intensity (a.u.)
12,TTGTCTTGTCTGTCTGGTTGGCCGGCCGGGAGTCGCGCGCCGGAGTCACCTAGTGCAG,8620 fluorescence intensity (a.u.)
13,TGCTCCGCTCGGCTGCAGCTGCCGCCGCTGTTACGGATTACGGAGTCACCTAGTGCAG,8230 fluorescence intensity (a.u.)
14,GTGTTGCGCCTATAAATGTCGTTGATTGCCGCATCATTACCGGAGTCACCTAGTGCAG,8360 fluorescence intensity (a.u.)
15,CTTTTCTCCCTTCTTTCTCTTTCACGTCATATATGATAATCGGAGTCACCTAGTGCAG,8530 fluorescence intensity (a.u.)
16,GGAGTACCACATAGCCGTTCAGCTCTAGTCAAACGTCATTCGGAGTCACCTAGTGCAG,8200 fluorescence intensity (a.u.)
17,AGGGTGGGTGGAAAGATTACACATGAAAATATGACAAGAACGGAGTCACCTAGTGCAG,8620 fluorescence intensity (a.u.)
18,AATTATCTTGAAGCACCTCAACTCAACCTGATGTCATACACGGAGTCACCTAGTGCAG,8370 fluorescence intensity (a.u.)
19,TATTTACCGTTTCTGTTTGTCGTCGCCTGCGCGCGACGCTCGGAGTCACCTAGTGCAG,9660 fluorescence intensity (a.u.)
20,CAGGTGGTACAGAGCTTATCATTACAATTGCATGGTCAATCGGAGTCACCTAGTGCAG,10200 fluorescence intensity (a.u.)
21,TAGGTGGTGTTTGGTTTATGGATCAGGTGGGTTGGGTTGGCGGAGTCACCTAGTGCAG,8740 fluorescence intensity (a.u.)
22,CCATATATGCTCTTCACACTACTTGCATATTTTGGTTATTCGGAGTCACCTAGTGCAG,10100 fluorescence intensity (a.u.)
23,CTTCTCTCGCCGCCCGCGCGCGCGCTCTCCGGCGACCATGCGGAGTCACCTAGTGCAG,8640 fluorescence intensity (a.u.)
24,GTGACACCCAGAAATTTTCTTTTCGCGATTTAAACACATACGGAGTCACCTAGTGCAG,10100 fluorescence intensity (a.u.)
25,AGAGGCCTGAACTAGTATAATCCTTGTCTTTTGTCTGCTTCGGAGTCACCTAGTGCAG,10600 fluorescence intensity (a.u.)
26,GTGCTCGAGTGCTCGACCAGCCTTCGTCTCCGCTCGCCTCCGGAGTCACCTAGTGCAG,8620 fluorescence intensity (a.u.)
27,GCTGTATCCCAGAAGTTACTGTACAGTTTGCCAATTTCATCGGAGTCACCTAGTGCAG,9450 fluorescence intensity (a.u.)

# Nothing new here: an excerpt of the list.
row,Sequence,binding signal
3,TTATTCCTAGGTGAACTATTATTTTTTCTTTTTCTATTTTCGGAGTCACCTAGTGCAG,11700 fluorescence intensity (a.u.)
4,TCCATATATTCACATGTACGCAATCATATAATTCATCCAACGGAGTCACCTAGTGCAG,8240 fluorescence intensity (a.u.)
5,TACGAATAATCAGCCGTTTCACCACGCTTACTCTCTGAGACGGAGTCACCTAGTGCAG,8150 fluorescence intensity (a.u.)
6,TTCGGCAATCTAGCCGGCGTCCCAACTCCTCGCTGCCGCACGGAGTCACCTAGTGCAG,8060 fluorescence intensity (a.u.)
7,ACGCAGGCCGTCCCGTTCCGTTTCGTTTCCCCTGCCCGAGCGGAGTCACCTAGTGCAG,8300 fluorescence intensity (a.u.)
8,ATTGAAACATGATCCGAGTCATAGCCTGACTGGAATTCTTCGGAGTCACCTAGTGCAG,9120 fluorescence intensity (a.u.)
9,ACCTCGCCGCCTCCTCCGTTGCCGGCGATCCCGGCACATGCGGAGTCACCTAGTGCAG,9070 fluorescence intensity (a.u.)
10,CATAGTAGGCCATAAATTTGCTACCTTTTGTTCTTGCTTTCGGAGTCACCTAGTGCAG,8500 fluorescence intensity (a.u.)
11,AAAAAATTGGCATTTCTTCGCTCTAGACACAATTCCTGTGCGGAGTCACCTAGTGCAG,10600 fluorescence intensity (a.u.)
12,TTGTCTTGTCTGTCTGGTTGGCCGGCCGGGAGTCGCGCGCCGGAGTCACCTAGTGCAG,8620 fluorescence intensity (a.u.)
